# Measurements taken from the supplement of paper PMC10849652.
# Protein sequences, listed by entry. Tags and fused reporters are not part of them. Lines headed by an entry give the natural chain unless they say otherwise; changes in a name come on top.
# UniProt Q96DT6: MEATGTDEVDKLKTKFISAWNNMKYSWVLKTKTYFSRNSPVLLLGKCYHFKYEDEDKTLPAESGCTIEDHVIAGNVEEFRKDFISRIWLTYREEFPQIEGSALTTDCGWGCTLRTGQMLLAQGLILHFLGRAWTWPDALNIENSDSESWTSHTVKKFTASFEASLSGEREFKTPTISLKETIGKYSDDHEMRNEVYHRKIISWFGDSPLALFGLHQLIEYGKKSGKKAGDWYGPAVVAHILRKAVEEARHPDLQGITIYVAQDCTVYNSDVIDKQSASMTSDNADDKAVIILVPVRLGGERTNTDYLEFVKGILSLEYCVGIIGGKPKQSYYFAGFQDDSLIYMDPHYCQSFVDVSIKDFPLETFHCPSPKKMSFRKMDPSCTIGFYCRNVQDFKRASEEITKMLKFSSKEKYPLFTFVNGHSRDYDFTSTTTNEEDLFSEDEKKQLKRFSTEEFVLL
# UniProt P56378: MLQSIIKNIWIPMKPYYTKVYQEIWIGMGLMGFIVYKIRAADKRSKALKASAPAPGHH
# UniProt Q9HD20: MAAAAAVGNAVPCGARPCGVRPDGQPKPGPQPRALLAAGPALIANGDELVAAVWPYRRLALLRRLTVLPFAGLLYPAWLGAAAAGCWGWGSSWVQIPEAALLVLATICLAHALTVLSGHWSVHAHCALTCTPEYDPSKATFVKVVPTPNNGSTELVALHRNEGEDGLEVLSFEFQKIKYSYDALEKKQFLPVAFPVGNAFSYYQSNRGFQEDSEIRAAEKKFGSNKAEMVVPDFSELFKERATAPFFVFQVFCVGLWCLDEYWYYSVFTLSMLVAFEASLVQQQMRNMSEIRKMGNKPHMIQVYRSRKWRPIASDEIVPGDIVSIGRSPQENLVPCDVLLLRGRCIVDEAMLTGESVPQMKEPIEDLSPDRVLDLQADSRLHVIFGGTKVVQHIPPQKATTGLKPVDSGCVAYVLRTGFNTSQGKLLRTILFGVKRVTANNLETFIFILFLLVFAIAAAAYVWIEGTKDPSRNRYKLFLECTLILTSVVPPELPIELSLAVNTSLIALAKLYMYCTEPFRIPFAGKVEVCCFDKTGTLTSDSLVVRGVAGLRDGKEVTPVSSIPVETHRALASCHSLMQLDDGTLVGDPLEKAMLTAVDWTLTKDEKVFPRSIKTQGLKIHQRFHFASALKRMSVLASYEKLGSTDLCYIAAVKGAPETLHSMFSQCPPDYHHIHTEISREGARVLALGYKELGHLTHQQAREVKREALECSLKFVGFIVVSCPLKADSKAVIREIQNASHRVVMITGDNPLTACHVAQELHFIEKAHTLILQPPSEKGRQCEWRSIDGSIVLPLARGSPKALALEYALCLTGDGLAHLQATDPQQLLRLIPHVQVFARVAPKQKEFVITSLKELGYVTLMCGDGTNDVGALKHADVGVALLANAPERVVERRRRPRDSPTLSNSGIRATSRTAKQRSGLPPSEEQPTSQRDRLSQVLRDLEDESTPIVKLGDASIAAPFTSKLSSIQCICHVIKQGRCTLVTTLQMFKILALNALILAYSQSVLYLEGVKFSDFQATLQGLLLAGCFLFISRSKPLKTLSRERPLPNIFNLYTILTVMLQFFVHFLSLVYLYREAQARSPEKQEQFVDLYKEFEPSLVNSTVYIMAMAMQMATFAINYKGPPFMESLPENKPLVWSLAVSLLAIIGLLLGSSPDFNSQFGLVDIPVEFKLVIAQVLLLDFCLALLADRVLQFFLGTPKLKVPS
# UniProt P27540, whole entry, looked up: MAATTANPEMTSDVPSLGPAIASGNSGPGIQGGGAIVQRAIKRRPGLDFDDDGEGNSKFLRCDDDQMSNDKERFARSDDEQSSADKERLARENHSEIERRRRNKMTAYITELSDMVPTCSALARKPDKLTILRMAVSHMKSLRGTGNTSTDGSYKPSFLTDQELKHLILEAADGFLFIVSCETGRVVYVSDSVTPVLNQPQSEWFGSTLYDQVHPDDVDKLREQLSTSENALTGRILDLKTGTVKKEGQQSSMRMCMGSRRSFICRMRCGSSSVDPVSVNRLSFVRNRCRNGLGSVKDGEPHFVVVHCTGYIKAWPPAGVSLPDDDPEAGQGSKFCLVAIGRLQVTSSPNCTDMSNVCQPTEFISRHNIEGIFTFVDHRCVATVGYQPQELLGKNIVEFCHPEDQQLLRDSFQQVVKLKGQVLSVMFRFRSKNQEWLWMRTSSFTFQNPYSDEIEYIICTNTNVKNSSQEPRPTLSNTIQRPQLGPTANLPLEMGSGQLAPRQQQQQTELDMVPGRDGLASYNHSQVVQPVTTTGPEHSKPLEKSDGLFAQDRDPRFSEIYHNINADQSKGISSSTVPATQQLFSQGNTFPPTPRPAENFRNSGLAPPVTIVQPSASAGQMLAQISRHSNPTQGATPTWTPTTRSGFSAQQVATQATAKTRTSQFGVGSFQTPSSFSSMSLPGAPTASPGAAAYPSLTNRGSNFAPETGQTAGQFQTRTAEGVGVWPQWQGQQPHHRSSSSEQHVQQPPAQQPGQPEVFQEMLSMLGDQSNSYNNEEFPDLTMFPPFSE
# UniProt O95376: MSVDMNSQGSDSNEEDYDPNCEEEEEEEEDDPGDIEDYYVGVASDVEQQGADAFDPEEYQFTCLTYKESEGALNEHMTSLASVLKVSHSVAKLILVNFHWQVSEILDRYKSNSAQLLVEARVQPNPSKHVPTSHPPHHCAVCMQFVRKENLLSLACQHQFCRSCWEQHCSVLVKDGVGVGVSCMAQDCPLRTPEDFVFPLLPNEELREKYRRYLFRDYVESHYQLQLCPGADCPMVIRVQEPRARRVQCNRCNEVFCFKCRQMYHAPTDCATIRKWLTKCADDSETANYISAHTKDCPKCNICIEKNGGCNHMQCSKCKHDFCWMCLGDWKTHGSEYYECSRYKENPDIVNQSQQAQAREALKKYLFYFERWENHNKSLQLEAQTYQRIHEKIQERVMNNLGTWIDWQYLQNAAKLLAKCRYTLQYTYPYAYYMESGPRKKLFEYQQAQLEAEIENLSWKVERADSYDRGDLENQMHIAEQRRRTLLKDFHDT
# UniProt O94817, whole entry, looked up: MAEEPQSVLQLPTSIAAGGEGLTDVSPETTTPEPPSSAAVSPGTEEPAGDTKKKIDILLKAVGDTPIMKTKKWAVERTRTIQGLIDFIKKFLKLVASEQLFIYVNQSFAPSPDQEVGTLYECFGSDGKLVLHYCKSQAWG
# UniProt Q9ULH1: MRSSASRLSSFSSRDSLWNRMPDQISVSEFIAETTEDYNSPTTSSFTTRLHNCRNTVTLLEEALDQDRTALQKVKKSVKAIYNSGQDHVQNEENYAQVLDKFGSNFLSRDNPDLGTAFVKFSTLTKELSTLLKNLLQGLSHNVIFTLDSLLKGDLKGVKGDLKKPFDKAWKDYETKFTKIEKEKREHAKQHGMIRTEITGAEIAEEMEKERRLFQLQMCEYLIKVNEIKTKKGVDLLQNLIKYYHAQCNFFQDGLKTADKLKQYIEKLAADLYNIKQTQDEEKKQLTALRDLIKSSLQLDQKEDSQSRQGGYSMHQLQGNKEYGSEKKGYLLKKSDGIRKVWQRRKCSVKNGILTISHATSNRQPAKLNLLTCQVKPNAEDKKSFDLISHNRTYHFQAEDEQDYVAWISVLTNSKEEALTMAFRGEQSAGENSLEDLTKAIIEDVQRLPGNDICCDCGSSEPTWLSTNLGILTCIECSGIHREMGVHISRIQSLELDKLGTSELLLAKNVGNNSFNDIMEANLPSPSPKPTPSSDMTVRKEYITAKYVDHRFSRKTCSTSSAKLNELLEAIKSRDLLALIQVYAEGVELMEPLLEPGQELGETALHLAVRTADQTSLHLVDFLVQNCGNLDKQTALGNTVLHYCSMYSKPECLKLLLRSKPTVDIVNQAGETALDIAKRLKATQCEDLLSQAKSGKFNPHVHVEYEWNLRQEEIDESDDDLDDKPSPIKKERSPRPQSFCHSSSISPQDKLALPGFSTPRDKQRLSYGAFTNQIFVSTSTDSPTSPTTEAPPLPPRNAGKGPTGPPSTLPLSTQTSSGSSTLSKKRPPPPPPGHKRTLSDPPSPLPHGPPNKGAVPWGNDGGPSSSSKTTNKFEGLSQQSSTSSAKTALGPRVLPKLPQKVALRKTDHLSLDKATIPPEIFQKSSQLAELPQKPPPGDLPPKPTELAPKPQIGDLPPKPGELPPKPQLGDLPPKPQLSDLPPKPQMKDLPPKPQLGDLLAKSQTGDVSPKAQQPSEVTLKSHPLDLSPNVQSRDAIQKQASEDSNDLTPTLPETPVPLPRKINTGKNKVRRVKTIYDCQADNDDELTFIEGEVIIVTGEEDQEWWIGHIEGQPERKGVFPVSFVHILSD
# UniProt P61421, whole entry, looked up: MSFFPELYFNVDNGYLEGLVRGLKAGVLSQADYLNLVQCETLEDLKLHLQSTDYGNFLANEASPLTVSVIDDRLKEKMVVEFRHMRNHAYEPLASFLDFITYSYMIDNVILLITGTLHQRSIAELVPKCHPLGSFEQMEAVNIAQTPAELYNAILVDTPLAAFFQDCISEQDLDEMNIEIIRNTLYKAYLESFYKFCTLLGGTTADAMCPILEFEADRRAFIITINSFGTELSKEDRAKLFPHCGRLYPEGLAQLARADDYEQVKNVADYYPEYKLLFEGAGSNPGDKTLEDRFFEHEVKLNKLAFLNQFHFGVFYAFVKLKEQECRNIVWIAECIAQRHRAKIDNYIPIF
# UniProt Q9Y5K8, whole entry, looked up: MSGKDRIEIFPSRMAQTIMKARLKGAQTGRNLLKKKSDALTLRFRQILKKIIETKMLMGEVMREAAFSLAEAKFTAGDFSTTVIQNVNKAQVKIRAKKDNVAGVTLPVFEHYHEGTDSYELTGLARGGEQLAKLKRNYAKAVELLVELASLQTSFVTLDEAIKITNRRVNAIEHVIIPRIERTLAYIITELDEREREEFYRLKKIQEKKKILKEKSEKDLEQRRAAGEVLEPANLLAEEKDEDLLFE
# UniProt Q9BPX5, whole entry, looked up: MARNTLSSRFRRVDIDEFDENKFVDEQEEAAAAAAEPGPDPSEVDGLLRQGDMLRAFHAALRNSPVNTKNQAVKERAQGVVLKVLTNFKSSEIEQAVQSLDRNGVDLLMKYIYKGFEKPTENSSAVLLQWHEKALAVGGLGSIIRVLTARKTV
# UniProt P56381: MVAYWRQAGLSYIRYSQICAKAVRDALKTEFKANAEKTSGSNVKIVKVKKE
# UniProt P48047: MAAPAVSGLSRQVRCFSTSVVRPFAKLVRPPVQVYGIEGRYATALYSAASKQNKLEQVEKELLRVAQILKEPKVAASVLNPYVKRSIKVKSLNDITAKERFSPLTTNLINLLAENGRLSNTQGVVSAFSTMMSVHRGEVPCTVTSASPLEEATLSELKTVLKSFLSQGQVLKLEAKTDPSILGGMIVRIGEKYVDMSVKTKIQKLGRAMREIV
# UniProt P21281, whole entry, looked up: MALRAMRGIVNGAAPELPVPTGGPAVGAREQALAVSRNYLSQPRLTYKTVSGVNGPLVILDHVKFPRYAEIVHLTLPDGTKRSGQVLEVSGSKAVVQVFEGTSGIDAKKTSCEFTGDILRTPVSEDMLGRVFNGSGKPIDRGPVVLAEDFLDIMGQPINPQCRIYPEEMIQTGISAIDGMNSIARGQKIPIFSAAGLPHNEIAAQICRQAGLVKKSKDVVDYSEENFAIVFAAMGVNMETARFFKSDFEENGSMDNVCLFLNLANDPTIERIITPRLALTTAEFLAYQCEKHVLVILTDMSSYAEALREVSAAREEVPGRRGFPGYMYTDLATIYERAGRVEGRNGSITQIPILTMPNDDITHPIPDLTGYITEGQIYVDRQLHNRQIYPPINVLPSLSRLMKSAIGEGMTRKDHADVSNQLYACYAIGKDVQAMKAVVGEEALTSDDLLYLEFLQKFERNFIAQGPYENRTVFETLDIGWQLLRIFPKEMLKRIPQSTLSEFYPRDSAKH
# UniProt Q9Y689: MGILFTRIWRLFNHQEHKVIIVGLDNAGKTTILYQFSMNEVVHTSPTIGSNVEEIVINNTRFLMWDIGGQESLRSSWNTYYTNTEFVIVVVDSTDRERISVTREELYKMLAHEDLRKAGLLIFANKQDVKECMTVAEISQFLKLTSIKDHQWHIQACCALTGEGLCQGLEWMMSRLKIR
# UniProt Q9NVP2, whole entry, looked up: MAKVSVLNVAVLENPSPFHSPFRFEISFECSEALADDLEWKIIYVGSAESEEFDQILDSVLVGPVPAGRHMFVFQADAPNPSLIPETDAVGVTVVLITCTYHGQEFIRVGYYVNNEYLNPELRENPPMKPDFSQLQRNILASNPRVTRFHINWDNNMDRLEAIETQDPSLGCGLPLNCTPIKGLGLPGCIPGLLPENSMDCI
# UniProt O75964: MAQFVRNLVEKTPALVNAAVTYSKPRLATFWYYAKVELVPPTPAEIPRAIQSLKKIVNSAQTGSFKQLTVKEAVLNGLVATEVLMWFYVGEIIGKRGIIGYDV
# UniProt Q8N5M1: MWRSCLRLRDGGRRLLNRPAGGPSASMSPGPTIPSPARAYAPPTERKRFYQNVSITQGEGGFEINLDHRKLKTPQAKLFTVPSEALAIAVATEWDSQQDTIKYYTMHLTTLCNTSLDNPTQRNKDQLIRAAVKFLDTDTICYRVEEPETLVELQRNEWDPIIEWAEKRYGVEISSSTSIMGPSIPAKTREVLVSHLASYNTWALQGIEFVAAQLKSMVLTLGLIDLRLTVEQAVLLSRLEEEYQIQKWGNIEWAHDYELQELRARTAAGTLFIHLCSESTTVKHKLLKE
# The list shows a part of the results.
# Compound: Cc1ccc(-n2nc(C(C)(C)C)cc2NC(=O)Nc2ccc(OCCN3CCOCC3)c3ccccc23)cc1 [doramapimod]
# Test: log2 fold change, soluble protein after heating vs DMSO (PISA); higher = thermal stabilisation; K562 cells, 10 uM, 30 min; active = over 0.2 and 3.5 SD of the protein, either way, in both replicates (recomputed)
# Outline: (§1)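 Soluble protein was quantified by TMTpro 16plex LC-MS/MS after channel sums were equalised. It was obtained as the supernatant after 21,000xg for 90 min from pooled aliquots of K562 cells (2×10^6 cells/mL, 10 μM compound, 30 min) heated for 3 min across 48°C-58°C and extracted in PBS with 0.5% NP-40 at 4°C. Thermal stability values are relative to control samples and come from duplicates. They are given as log2 fold changes.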
row,Target,log2 fold change
1,ATG4C (UniProt Q96DT6),inactive: -0.051
2,ARL6IP5 (UniProt O75915),inactive: -0.04
3,ATE1 isoform 2 (UniProt O95260),inactive: -0.038
4,ATP5MPL (UniProt P56378),inactive: -0.043
5,ATP13A1 (UniProt Q9HD20),inactive: -0.013
6,ARNT (UniProt P27540),inactive: 0.048
7,ATP5PF isoform 2 (UniProt P18859),inactive: 0.044
8,ATP2A2 (UniProt P16615),inactive: -0.011
9,ARIH2 (UniProt O95376),inactive: -0.078
10,ATP7A isoform 3 (UniProt Q04656),inactive: -0.005
11,ATP5F1C (UniProt P36542),inactive: -0.012
12,ARMCX3 (UniProt Q9UH62),inactive: 0.1
13,ARL6IP1 (UniProt Q15041),inactive: -0.144
14,ASDURF (UniProt L0R819),inactive: 0.006
15,ATG12 (UniProt O94817),inactive: 0.003
16,ASNA1 (UniProt O43681),inactive: 0.004
17,ATP5PD (UniProt O75947),inactive: -0.025
18,ASMTL (UniProt O95671),inactive: 0.02
19,ATN1 (UniProt P54259),inactive: 0.016

row,Target,log2 fold change
1,ARL2 (UniProt P36404),inactive: -0.025
2,ASAP1 isoform 2 (UniProt Q9ULH1),inactive: 0.057
3,ATP6V0D1 (UniProt P61421),inactive: 0.211
4,ATP6V1D (UniProt Q9Y5K8),inactive: 0
5,ARPC5L (UniProt Q9BPX5),inactive: -0.065
6,ATP11C (UniProt Q8NB49),inactive: -0.022
7,ATP5F1E (UniProt P56381),inactive: -0.029
8,ATP5PO (UniProt P48047),inactive: -0.02
9,ASPM (UniProt Q8IZT6),inactive: -0.01
10,ATP11B (UniProt Q9Y2G3),inactive: -0.019
11,ATP6V1B2 (UniProt P21281),inactive: 0.012
12,ARL5A (UniProt Q9Y689),inactive: 0.031
13,ASF1B (UniProt Q9NVP2),inactive: 0.026
14,ARRB1 (UniProt P49407),inactive: -0.001
15,ATP5MG (UniProt O75964),inactive: 0.029
16,ARPC4 isoform 3 (UniProt P59998),inactive: -0.014
17,ATG13 isoform 5 (UniProt O75143),inactive: 0.051
18,ATPAF2 (UniProt Q8N5M1),inactive: -0.012

# Compound: Cc1ccc(C(=O)N(CCCN)[C@@H](c2nc3cc(Cl)ccc3c(=O)n2Cc2ccccc2)C(C)C)cc1 [ispinesib]
# Test: as above
# Outline: as §1
row,Target,log2 fold change
1,ATG4C (UniProt Q96DT6),inactive: -0.02
2,ARL6IP5 (UniProt O75915),inactive: -0.143
3,ATE1 isoform 2 (UniProt O95260),inactive: -0.002
4,ATP5MPL (UniProt P56378),inactive: 0.233
5,ATP13A1 (UniProt Q9HD20),inactive: 0.032
6,ARNT (UniProt P27540),inactive: 0.049
7,ATP5PF isoform 2 (UniProt P18859),inactive: 0.108
8,ATP2A2 (UniProt P16615),inactive: -0.04
9,ARIH2 (UniProt O95376),inactive: 0.081
10,ATP7A isoform 3 (UniProt Q04656),inactive: 0.119
11,ATP5F1C (UniProt P36542),inactive: 0
12,ARMCX3 (UniProt Q9UH62),inactive: -0.103
13,ARL6IP1 (UniProt Q15041),inactive: 0.09
14,ASDURF (UniProt L0R819),inactive: 0.006
15,ASNA1 (UniProt O43681),inactive: 0.091
16,ATP5PD (UniProt O75947),inactive: 0.077
17,ASMTL (UniProt O95671),inactive: -0.249
18,ATN1 (UniProt P54259),inactive: 0.033

row,Target,log2 fold change
1,ARL2 (UniProt P36404),inactive: 0.036
2,ASAP1 isoform 2 (UniProt Q9ULH1),inactive: 0.018
3,ATP6V0D1 (UniProt P61421),inactive: -0.22
4,ATP6V1D (UniProt Q9Y5K8),inactive: -0.112
5,ARPC5L (UniProt Q9BPX5),inactive: 0.082
6,ATP11C (UniProt Q8NB49),inactive: -0.046
7,ATP5F1E (UniProt P56381),inactive: 0.065
8,ATP5PO (UniProt P48047),inactive: -0.022
9,ASPM (UniProt Q8IZT6),inactive: 0.026
10,ATP11B (UniProt Q9Y2G3),inactive: -0.066
11,ATP6V1B2 (UniProt P21281),inactive: -0.119
12,ARL5A (UniProt Q9Y689),inactive: -0.064
13,ASF1B (UniProt Q9NVP2),inactive: -0.227
14,ARRB1 (UniProt P49407),inactive: 0.002
15,ATP5MG (UniProt O75964),inactive: -0.082
16,ARPC4 isoform 3 (UniProt P59998),inactive: 0.068
17,ATG13 isoform 5 (UniProt O75143),inactive: 0.008
18,ATPAF2 (UniProt Q8N5M1),inactive: -0.003
